Data: article PMC9303270
These are yes or no findings as the source states them, for the method shown. In cells and extracts the contact can be indirect. Binding can be weak; no strength is given.

How the values were obtained:
[1] = target: endogenous METTL7A1 (mouse (endogenous in NMuMG)); experiment: co-IP; endogenous METTL7A1 with its molecular partners in NMuMG cell extracts; immunoblot
[2] = target: FLAG-tagged METTL7A1 (4T1-METTL7A1 cells) (mouse); experiment: co-IP; FLAG-tagged METTL7A1 with its molecular partners in 4T1 cell extracts; when indicated extracts pre-treated 30 min at 37°C with RNase A (100 μg/ml), interactions unaffected; immunoblot

binding [1] | binding [2] | Binder
binds | binds | SYNCRIP (protein, UniProt Q7TMK9 1-623) MATEHVNGNGTEEPMDTTSAVIHSENFQTLLDAGLPQKVAEKLDEIYVAGLVAHSDLDERAIEALKEFNEDGALAVLQQFKDSDLSHVQNKSAFLCGVMKTYRQREKQGTKVADSSKGPDEAKIKALLERTGYTLDVTTGQRKYGGPPPDSVYSGQQPSVGTEIFVGKIPRDLFEDELVPLFEKAGPIWDLRLMMDPLTGLNRGYAFVTFCTKEAAQEAVKLYNNHEIRSGKHIGVCISVANNRLFVGSIPKSKTKEQILEEFSKVTEGLTDVILYHQPDDKKKNRGFCFLEYEDHKTAAQARRRLMSGKVKVWGNVGTVEWADPIEDPDPEVMAKVKVLFVRNLANTVTEEILEKSFSQFGKLERVKKLKDYAFIHFDERDGAVKAMEEMNGKDLEGENIEIVFAKPPDQKRKERKAQRQAAKNQMYDDYYYYGPPHMPPPTRGRGRGGRGGYGYPPDYYGYEDYYDYYGYDYHNYRGGYEDPYYGYEDFQVGARGRGGRGARGAAPSRGRGAAPPRGRAGYSQRGGPGSARGVRGARGGAQQQRGRGVRGARGGRGGNVGGKRKADGYNQPDTKRRQTNNQNWGSQPIAQQPLQGGDHSGNYGYKSENQEFYQDTFGQQWK
binds | binds | IPO5 (protein, UniProt Q8BKC5 1-1097) MAAAAAEQQQFYLLLGNLLSPDNVVRKQAEETYENIPGRSKITFLLQAIRNTTAAEEARQMAAVLLRRLLSSAFDEVYPALPSDVQTAIKSELLMIIQMETQSSMRKKICDIAAELARNLIDEDGNNQWPEGLKFLFDSVSSQNMGLREAALHIFWNFPGIFGNQQQHYLDVIKRMLVQCMQDQEHPSIRTLSARATAAFILANEHNVALFKHFADLLPGFLQAVNDSCYQNDDSVLKSLVEIADTVPKYLRPHLEATLQLSLKLCGDTNLNNMQRQLALEVIVTLSETAAAMLRKHTSLIAQTIPQMLAMMVDLEEDEDWANADELEDDDFDSNAVAGESALDRMACGLGGKLVLPMIKEHIMQMLQNPDWKYRHAGLMALSAIGEGCHQQMEGILNEIVNFVLLFLQDPHPRVRYAACNAVGQMATDFAPGFQKKFHEKVIAALLQTMEDQGNQRVQAHAAAALINFTEDCPKSLLIPYLDNLVKHLHSIMVLKLQELIQKGTKLVLEQVVTSIASVADTAEEKFVPYYDLFMPSLKHIVENAVQKELRLLRGKTIECISLIGLAVGKEKFMQDASDVMQLLLKTQTDFNDMEDDDPQISYMISAWARMCKILGKEFQQYLPVVMGPLMKTASIKPEVALLDTQDMENMSDDDGWEFVNLGDQQSFGIKTAGLEEKSTACQMLVCYAKELKEGFVEYTEQVVKLMVPLLKFYFHDGVRVAAAESMPLLLECARVRGPEYLTQMWHFMCDALIKAIGTEPDSDVLSEIMHSFAKCIEVMGDGCLNNEHFEELGGILKAKLEEHFKNQELRQVKRQDEDYDEQVEESLQDEDDNDVYILTKVSDILHSIFSSYKEKVLPWFEQLLPLIVNLICPQRPWPDRQWGLCIFDDIVEHCSPASFKYAEYFISPMLQYVCDNSPEVRQAAAYGLGVMAQFGGDNYRPFCTDALPLLVRVIQAPEAKTKENVNATENCISAVGKIMKFKPDCVNVEEVLPHWLSWLPLHEDKEEAVQTFSYLCDLIESNHPIVLGPNNTNLPKIFSIIAEGEMHEAIKHEDPCAKRLANVVRQVQTSGGLWTECIAQLSPEQQAAIQELLNSA
